Measured values as given in the supplement of paper PMC10849652.
The list shows a part of the results.

Protein sequences, listed by entry. Tags and fused reporters are not part of them. Lines headed by an entry give the natural chain unless they say otherwise; changes in a name come on top.
UniProt Q9NRF9: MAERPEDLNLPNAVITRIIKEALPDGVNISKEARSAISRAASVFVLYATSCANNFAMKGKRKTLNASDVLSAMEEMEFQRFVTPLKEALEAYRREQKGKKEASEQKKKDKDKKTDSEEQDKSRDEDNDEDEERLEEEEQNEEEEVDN
UniProt Q9Y2Y1: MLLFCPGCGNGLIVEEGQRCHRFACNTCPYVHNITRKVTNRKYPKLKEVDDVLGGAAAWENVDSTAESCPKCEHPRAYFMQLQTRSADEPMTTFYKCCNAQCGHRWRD
UniProt P14859: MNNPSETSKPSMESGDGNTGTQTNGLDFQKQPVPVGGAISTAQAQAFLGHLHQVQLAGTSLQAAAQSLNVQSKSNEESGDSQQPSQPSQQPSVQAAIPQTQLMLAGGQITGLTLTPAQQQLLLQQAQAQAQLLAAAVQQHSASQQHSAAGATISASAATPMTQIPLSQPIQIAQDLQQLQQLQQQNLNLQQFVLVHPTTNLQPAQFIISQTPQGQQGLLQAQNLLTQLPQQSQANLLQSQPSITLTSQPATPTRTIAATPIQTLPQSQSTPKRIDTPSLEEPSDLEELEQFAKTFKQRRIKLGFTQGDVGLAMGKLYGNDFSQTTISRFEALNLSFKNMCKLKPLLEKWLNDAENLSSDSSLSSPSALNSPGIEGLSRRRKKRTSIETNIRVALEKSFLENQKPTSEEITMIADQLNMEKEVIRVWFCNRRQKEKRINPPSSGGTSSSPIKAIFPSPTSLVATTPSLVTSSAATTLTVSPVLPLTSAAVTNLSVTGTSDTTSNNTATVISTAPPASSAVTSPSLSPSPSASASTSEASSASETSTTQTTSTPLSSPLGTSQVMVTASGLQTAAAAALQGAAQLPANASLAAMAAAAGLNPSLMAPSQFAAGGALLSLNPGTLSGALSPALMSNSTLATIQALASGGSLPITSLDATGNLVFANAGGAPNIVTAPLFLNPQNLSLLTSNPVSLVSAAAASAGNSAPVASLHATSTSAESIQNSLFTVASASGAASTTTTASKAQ
UniProt Q92871: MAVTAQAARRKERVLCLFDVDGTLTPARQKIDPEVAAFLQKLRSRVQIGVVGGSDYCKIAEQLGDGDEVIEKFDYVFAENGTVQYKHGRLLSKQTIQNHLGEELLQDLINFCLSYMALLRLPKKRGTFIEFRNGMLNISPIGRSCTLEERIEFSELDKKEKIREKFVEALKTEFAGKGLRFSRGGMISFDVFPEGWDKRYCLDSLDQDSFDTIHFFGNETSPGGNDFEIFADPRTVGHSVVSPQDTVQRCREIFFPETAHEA
UniProt Q15054: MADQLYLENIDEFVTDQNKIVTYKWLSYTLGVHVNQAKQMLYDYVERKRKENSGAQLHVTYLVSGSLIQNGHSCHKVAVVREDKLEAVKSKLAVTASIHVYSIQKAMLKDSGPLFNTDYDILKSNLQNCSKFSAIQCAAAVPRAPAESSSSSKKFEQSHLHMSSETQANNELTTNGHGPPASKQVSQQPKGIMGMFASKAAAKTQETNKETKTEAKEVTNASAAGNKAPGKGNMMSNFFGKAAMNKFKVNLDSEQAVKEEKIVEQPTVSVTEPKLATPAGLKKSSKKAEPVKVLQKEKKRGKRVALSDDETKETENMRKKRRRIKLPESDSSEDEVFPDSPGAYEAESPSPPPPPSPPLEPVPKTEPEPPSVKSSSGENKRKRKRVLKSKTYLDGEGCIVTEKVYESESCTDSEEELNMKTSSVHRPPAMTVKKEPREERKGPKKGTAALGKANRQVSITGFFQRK
UniProt P62937, whole entry, looked up: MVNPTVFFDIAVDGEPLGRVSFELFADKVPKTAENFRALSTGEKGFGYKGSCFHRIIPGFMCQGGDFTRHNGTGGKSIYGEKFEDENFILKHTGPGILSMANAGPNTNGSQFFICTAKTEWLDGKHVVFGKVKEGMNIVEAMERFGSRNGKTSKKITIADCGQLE
UniProt Q9NW08: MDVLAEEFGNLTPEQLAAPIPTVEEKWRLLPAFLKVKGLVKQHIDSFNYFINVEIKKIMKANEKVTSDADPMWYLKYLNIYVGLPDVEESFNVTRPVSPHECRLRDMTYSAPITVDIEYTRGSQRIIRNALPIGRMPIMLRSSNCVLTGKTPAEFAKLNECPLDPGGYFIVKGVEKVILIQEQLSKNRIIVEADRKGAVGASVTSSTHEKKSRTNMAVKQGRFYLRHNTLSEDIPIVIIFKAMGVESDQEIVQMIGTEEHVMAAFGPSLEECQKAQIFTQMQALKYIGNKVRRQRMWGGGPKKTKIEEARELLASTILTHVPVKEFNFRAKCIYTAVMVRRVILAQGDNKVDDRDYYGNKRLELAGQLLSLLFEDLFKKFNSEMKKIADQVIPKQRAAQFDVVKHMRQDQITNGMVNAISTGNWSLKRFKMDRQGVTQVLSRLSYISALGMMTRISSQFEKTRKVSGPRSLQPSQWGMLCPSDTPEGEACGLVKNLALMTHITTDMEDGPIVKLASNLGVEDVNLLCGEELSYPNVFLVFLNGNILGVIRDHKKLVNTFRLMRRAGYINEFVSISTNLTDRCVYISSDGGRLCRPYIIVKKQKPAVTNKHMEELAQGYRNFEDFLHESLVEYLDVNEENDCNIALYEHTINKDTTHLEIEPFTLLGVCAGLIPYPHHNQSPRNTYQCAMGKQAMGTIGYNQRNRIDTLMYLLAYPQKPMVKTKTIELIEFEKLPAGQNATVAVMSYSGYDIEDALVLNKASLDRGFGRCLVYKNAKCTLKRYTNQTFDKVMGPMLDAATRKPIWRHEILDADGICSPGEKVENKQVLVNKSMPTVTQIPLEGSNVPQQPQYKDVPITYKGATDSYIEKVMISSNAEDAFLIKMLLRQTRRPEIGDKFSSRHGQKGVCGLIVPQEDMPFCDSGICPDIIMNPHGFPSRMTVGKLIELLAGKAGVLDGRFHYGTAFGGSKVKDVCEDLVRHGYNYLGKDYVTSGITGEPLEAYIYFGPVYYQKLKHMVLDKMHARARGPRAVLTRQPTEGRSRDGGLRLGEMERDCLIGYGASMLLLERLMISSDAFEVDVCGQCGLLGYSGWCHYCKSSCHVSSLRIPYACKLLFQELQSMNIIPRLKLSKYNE
UniProt Q8NBL1: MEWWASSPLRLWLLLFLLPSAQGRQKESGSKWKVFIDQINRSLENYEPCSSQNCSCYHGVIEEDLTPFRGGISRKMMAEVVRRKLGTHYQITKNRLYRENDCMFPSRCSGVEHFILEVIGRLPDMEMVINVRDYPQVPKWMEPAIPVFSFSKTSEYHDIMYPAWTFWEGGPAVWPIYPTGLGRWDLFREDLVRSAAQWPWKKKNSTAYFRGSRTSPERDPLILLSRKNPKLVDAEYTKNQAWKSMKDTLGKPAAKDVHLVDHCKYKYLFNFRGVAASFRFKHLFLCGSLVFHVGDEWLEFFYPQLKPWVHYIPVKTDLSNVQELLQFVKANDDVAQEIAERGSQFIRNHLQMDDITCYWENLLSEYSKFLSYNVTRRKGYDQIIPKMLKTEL
UniProt P0DPB6, whole entry, looked up: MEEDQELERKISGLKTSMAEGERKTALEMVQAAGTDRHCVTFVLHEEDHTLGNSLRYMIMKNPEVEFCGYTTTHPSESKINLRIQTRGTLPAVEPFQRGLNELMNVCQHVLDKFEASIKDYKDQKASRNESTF
UniProt Q9NZ53: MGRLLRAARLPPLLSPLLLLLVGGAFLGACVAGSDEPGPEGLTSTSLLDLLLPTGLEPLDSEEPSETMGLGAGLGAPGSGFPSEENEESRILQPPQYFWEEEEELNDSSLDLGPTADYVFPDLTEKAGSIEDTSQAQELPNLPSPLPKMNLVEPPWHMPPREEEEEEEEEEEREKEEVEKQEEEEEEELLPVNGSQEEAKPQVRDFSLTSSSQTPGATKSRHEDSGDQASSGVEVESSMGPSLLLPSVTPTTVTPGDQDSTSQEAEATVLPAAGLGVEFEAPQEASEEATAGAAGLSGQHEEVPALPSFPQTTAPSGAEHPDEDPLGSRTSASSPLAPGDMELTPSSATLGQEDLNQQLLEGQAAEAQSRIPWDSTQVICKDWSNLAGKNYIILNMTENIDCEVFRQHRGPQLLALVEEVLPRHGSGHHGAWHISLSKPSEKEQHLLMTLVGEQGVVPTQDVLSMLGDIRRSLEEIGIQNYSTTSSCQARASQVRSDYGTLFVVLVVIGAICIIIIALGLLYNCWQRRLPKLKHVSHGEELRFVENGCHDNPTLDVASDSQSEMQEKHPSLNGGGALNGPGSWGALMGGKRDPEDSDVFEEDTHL
UniProt P05423: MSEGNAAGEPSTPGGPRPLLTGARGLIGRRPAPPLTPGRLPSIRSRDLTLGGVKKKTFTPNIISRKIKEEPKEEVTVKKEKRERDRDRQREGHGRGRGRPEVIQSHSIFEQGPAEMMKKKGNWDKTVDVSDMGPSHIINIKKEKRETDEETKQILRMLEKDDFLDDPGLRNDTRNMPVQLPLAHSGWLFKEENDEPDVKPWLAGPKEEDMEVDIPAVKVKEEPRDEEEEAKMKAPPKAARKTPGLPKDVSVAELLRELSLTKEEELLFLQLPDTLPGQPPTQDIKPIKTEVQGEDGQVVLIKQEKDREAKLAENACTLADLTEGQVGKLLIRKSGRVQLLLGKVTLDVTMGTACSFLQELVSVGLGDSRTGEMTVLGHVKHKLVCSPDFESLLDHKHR
UniProt Q9HAB8: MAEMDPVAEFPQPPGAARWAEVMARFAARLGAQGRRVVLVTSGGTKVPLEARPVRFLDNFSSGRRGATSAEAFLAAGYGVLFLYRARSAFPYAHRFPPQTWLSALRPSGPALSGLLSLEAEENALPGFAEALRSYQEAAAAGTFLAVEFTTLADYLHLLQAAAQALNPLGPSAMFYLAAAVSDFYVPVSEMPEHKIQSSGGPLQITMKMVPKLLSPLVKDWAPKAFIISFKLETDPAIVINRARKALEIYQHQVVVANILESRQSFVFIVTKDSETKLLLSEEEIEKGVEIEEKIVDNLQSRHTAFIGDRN
UniProt O95602, whole entry, looked up: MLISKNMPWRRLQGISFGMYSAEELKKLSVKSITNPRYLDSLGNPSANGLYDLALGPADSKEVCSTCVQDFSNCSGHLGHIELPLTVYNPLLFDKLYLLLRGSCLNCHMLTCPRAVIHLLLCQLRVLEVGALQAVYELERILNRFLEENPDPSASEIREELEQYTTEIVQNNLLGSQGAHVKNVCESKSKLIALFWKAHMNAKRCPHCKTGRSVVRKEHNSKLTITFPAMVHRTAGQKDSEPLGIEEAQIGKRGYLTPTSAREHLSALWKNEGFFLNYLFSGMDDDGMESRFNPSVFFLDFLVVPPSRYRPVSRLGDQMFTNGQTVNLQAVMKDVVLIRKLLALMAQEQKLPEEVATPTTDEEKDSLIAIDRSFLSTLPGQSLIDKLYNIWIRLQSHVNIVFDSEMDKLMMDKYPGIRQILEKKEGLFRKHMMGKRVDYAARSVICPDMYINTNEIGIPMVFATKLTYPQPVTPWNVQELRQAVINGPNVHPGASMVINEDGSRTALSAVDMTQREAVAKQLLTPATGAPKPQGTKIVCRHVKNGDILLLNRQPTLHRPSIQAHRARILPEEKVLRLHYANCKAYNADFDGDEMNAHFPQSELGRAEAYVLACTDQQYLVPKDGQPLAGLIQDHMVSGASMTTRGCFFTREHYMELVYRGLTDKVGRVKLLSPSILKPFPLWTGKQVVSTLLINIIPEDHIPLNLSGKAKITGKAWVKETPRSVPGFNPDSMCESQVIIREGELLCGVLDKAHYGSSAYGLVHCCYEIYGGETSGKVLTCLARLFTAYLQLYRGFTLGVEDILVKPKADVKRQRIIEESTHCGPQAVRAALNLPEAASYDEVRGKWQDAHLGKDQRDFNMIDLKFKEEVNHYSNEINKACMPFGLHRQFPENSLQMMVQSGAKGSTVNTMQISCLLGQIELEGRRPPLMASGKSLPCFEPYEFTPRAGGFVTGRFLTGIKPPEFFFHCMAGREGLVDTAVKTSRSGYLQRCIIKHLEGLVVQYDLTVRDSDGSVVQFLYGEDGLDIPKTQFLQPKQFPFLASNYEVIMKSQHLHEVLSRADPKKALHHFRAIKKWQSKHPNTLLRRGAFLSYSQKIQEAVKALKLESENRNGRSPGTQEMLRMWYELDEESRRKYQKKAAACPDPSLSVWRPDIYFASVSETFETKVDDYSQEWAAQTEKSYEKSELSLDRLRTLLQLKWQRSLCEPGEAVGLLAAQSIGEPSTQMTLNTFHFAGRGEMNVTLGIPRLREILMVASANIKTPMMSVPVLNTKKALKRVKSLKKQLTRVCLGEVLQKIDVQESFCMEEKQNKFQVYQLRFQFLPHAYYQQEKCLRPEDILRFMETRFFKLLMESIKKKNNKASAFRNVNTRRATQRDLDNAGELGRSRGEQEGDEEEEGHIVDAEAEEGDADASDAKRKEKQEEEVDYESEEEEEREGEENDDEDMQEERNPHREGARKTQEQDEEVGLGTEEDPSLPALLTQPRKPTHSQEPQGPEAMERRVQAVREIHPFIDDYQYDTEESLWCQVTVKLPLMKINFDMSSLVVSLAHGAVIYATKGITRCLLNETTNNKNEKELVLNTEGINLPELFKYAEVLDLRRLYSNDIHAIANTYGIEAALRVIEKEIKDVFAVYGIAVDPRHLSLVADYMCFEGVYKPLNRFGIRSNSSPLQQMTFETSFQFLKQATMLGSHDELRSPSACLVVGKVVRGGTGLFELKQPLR

compound: C1CN(CCC1(CC2=CC=C(C=C2)Cl)N)C3=NC=NC4=C3C=CN4; assay: log2 fold change, soluble protein after heating vs DMSO (PISA); higher = thermal stabilisation; K562 lysate, 10 uM; active = over 0.2 and 3.5 SD of the protein, either way, in both replicates (recomputed)
Summary of the method: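 Thermal stability, expressed as log-two fold change relative to solvent controls, is given from duplicates. Crude K562 extract in PBS pH 7.4 with 1 mM MgCl2, at 1 mg/mL protein, was treated with 10 μM compound for 30 min and heated in aliquots for 3 min across 48°C-58°C. After pooling, adjustment to 0.5% NP-40 at 4°C and centrifugation at 21,000xg for 90 min, supernatant protein was measured by TMTpro 16plex LC-MS/MS with channel sums equalised.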

log2 fold change, inactive:
PLEKHM2 (UniProt Q8IWE5) -0.012
PPAN isoform 3 (UniProt Q9NQ55) 0
POTEF (UniProt A5A3E0) 0.049
POLE3 (UniProt Q9NRF9) 0.028
PLGRKT (UniProt Q9HBL7) 0.014
POGLUT3 (UniProt Q7Z4H8) -0.005
POMGNT1 isoform 2 (UniProt Q8WZA1) -0.097
PMPCB (UniProt O75439) 0.003
POLR3K (UniProt Q9Y2Y1) 0.018
PNN (UniProt Q9H307) -0.032
POU2F1 isoform 6 (UniProt P14859) -0.01
PMM1 (UniProt Q92871) 0.038
PMPCA (UniProt Q10713) -0.012
POLR3C (UniProt Q9BUI4) 0.005
PNPLA8 (UniProt Q9NP80) -0.077
PLXNA3 (UniProt P51805) -0.036
POLD3 (UniProt Q15054) -0.012
PPID (UniProt Q08752) -0.003
PNISR (UniProt Q8TF01) -0.021
POP1 (UniProt Q99575) -0.008
POLR3F (UniProt Q9H1D9) -0.01
PMS2 (UniProt P54278) 0.012
POLR2H (UniProt P52434) -0.014
PPIA (UniProt P62937) 0.009
POLR3B (UniProt Q9NW08) -0.01
POGLUT1 (UniProt Q8NBL1) -0.015
POMP (UniProt Q9Y244) 0.048
PLOD1 (UniProt Q02809) 0.008
POLE4 (UniProt Q9NR33) 0.091
POLR2A, A0A590UJN4 0.018
PPFIA2 (UniProt O75334) -0.074
POLR1D (UniProt P0DPB6) 0.092
PNPT1 (UniProt Q8TCS8) 0.04
PODXL2 (UniProt Q9NZ53) 0.139
POLR3D (UniProt P05423) -0.037
POM121 (UniProt Q96HA1) -0.017
PMF1 (UniProt Q6P1K2) 0.087
PPCS (UniProt Q9HAB8) 0.003
POLR1A (UniProt O95602) 0.049

Retrieved one by one from the entries so far:
log2 fold change, inactive:
PNISR (UniProt Q8TF01) -0.021
PPID (UniProt Q08752) -0.003
POLR1D (UniProt P0DPB6) 0.092
